Publication PMC12915160
Results are given in words; binding and its absence hold for the method and conditions named. In cells and extracts the contact can be indirect. Some entries that bind do so weakly or less than the wild type.

The chains behind the UniProt entries cited, without tags or fusion partners.
UniProt P85100: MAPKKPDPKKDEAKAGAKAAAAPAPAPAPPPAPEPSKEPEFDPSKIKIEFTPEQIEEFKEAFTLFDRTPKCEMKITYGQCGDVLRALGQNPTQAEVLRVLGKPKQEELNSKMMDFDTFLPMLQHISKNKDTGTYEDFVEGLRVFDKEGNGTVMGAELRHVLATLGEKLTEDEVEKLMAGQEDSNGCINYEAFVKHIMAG
UniProt Q27991: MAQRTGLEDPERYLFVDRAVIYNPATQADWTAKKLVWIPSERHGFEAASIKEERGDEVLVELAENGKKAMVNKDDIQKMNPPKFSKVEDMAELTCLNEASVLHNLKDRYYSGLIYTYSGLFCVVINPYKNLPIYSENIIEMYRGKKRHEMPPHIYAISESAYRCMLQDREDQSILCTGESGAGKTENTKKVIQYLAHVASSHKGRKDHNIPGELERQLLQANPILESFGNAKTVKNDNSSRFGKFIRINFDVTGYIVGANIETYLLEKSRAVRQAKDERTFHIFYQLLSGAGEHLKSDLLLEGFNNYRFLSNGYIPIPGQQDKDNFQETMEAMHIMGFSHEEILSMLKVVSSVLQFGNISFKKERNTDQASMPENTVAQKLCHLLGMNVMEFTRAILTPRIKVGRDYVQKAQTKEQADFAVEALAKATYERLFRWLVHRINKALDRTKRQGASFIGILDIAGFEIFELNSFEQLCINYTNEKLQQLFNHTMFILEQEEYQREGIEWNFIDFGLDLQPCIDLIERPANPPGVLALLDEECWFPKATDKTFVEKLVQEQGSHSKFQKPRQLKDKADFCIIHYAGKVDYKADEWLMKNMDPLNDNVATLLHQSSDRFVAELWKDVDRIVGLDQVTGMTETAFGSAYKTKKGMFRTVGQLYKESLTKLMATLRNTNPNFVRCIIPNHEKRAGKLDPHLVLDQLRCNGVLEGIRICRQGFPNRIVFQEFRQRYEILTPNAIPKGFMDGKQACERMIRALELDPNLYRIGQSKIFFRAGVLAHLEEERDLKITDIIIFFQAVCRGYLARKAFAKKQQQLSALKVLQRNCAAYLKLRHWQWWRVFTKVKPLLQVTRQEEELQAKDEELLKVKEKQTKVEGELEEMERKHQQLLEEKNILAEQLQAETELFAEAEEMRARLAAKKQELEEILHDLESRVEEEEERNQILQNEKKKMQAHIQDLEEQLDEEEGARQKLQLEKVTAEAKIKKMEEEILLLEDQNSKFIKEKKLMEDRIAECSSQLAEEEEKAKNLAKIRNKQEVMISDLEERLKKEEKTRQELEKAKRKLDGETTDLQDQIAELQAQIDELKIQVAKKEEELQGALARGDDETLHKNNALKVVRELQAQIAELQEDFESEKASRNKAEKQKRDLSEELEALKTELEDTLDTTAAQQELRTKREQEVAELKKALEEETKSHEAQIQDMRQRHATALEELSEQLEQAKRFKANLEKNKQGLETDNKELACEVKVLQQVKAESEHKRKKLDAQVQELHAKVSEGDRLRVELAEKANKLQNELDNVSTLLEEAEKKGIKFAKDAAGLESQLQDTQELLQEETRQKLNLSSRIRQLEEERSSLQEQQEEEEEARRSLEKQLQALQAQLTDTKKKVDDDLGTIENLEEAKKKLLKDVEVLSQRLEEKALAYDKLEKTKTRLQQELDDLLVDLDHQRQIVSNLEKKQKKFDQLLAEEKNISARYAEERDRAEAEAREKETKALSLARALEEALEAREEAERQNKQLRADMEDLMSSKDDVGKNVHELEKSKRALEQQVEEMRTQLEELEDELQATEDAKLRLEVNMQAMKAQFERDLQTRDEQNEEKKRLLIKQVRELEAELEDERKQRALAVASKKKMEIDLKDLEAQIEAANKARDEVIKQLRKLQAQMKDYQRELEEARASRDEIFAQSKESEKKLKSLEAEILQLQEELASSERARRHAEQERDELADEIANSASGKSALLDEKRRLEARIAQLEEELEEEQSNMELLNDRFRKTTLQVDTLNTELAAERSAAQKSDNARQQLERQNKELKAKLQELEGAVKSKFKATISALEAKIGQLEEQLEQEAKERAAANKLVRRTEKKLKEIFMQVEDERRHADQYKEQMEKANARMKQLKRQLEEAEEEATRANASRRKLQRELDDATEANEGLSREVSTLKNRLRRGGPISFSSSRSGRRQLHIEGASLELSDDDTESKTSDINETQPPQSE

Columns and labels:
[1] = target: MYL3 (myosin light chain family member) (bovine (endogenous in bovine MuSCs)) (UniProt P85100); experiment: co-IP; lysates of confluent bovine MuSCs incubated with MYH10, MYL3, PI3K or IgG antibodies overnight at 4 °C, captured on protein A/G magnetic beads, three washes, analysed by western blot
[2] = target: MYH10 (non‐muscle myosin IIB) (bovine (endogenous in bovine MuSCs)) (UniProt Q27991); experiment: as above

| binding [1] | binding [2] | Substance |
| --- | --- | --- |
| binds | – | MYH10 (non‐muscle myosin IIB) (from UniProt Q27991 1-1976) |
| – | binds | MYL3 (myosin light chain family member) (from UniProt P85100 1-199) |
